# Laboratory results as given in US20140093916.
# What was measured:
# [1] = tested on: T1, Vibhar+Sox transposase (S) (Vibrio harveyi); assay: activity assay; conditions: bead-bound complex fragments DNA, Mn2+, 45 C, protein in a lysate after overexpression
# T1 sequence: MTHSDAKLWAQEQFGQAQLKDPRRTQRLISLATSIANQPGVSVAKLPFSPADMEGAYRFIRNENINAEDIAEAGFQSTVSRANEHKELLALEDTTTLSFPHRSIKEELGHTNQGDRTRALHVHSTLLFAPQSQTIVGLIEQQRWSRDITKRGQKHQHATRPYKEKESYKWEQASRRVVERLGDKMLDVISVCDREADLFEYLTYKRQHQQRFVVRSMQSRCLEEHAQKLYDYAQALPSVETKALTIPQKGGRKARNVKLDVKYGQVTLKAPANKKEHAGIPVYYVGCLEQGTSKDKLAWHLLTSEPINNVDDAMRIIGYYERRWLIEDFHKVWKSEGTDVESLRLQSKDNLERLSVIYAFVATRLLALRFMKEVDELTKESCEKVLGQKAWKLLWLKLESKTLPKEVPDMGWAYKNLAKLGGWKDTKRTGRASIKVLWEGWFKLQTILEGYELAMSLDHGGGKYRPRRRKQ
# [2] = tested on: T2, Photobacterium profundum SS9 transposase (5B) (Photobacterium profundum); assay: activity assay; conditions: bead-bound complex fragments DNA, less GC bias, Mn2+, 45 C, protein in a lysate after overexpression
# T2 sequence: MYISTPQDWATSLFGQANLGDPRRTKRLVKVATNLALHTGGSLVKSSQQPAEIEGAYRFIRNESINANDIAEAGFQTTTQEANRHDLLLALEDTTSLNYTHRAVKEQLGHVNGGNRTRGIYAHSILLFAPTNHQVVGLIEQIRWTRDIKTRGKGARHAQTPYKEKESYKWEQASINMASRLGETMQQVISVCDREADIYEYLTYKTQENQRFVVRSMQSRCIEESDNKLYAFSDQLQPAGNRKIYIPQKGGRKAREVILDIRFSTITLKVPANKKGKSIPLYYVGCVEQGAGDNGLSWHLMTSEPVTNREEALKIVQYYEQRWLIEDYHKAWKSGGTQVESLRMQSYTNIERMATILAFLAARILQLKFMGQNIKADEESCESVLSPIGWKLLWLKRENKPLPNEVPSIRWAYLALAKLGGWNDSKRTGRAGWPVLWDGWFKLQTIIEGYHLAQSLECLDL
# [3] = tested on: T3, Vibhar+Lef transposase (L) (Vibrio harveyi); assay: activity assay; conditions: bead-bound complex fragments DNA, Mn2+, 45 C, protein in a lysate after overexpression, protein details: C-terminal extension GGGKKKRKRER (included in ref)
# T3 sequence: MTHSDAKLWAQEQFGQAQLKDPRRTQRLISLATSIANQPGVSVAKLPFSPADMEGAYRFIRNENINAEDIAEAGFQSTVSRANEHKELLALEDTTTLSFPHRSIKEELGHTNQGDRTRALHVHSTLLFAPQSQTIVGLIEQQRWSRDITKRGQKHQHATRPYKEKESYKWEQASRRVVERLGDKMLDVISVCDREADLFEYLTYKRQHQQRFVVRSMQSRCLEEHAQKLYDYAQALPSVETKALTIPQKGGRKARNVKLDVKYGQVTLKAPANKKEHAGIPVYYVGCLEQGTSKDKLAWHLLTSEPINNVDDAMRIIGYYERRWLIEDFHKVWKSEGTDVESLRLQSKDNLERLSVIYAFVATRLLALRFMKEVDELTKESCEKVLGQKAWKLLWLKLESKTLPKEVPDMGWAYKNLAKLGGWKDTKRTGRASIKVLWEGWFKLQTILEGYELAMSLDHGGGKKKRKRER
# [4] = tested on: T4, chimeric transposase SEQ 14 (Artificial Sequence); assay: activity assay; conditions: bead-bound complex fragments DNA, Mn2+, 45 C, protein in a lysate after overexpression
# T4 sequence: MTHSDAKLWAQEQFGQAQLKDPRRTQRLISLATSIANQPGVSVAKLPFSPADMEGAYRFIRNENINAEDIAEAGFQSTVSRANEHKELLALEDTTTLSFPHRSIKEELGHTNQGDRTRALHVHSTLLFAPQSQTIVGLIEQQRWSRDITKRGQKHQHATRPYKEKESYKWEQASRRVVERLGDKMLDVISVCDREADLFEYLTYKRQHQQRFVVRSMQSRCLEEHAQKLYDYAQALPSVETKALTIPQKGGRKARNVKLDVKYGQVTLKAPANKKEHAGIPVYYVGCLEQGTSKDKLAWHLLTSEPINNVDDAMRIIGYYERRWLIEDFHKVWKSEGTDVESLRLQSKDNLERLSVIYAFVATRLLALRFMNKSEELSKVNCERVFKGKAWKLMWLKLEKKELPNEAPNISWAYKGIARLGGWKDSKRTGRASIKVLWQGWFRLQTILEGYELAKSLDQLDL
# [5] = tested on: T5, Vibhar/P. profundum C-terminal domain chimeric transposase (5L) (Artificial Sequence); assay: activity assay; conditions: bead-bound complex fragments DNA, less GC bias, Mn2+, 45 C, protein in a lysate after overexpression
# T5 sequence: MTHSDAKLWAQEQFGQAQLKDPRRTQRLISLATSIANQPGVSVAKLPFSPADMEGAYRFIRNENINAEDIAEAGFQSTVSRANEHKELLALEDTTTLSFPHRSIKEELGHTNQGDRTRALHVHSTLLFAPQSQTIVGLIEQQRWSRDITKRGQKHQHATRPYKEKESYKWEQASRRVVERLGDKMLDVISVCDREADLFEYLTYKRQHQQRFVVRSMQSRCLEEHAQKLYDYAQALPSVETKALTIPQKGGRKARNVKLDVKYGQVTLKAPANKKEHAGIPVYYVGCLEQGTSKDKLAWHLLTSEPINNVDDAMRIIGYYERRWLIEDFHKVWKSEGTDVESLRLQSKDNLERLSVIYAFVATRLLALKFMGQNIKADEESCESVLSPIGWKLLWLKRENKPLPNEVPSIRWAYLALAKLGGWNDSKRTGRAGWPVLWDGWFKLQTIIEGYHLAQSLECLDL
# [6] = tested on: T6, Vibhar transposase (V6) (Vibrio harveyi); assay: activity assay; conditions: bead-bound complex tagmentation with PCR readout; Mn2+, 45 C; protein in a lysate after overexpression
# T6 sequence: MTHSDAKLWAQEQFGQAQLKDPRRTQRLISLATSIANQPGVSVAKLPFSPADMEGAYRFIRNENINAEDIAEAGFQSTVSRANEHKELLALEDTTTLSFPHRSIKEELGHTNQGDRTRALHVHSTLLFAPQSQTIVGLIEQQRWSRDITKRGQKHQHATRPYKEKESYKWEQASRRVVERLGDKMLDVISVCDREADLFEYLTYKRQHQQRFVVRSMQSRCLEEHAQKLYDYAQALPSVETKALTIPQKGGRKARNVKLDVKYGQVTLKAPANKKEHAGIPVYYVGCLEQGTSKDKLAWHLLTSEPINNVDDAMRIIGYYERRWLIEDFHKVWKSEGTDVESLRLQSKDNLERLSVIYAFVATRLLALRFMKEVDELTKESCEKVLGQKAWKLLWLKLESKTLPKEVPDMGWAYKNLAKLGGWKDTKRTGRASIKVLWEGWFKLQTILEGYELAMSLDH
# [7] = tested on: T7, chimeric transposase SEQ 12 (Artificial Sequence); assay: activity assay; conditions: bead-bound complex fragments DNA, Mn2+, 45 C, protein in a lysate after overexpression
# T7 sequence: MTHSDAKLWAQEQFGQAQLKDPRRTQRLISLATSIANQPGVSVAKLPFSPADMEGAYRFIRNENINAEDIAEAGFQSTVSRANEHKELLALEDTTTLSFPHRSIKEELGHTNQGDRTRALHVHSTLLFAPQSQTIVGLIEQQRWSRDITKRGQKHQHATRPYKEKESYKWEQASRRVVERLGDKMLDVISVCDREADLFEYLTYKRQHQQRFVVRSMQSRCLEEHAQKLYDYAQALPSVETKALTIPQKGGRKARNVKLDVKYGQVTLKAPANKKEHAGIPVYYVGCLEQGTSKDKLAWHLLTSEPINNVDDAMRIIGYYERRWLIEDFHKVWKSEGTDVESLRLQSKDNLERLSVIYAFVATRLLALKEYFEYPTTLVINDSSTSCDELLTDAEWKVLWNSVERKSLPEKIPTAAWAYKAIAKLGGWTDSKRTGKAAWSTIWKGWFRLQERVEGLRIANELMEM
# [8] = tested on: T8, chimeric transposase SEQ 13 (Artificial Sequence); assay: activity assay; conditions: bead-bound complex fragments DNA, Mn2+, 45 C, protein in a lysate after overexpression
# T8 sequence: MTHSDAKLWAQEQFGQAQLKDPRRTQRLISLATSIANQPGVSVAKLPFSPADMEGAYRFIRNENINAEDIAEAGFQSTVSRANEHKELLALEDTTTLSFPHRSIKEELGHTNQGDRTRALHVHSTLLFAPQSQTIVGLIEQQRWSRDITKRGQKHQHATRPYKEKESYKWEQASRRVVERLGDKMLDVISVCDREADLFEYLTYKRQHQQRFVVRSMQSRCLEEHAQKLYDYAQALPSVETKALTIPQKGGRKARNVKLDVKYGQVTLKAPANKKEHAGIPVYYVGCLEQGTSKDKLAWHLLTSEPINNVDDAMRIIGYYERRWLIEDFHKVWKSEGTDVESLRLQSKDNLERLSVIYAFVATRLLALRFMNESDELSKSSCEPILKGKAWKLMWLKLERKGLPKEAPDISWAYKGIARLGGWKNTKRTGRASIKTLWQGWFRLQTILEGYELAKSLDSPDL
# [9] = tested on: T9, Vibhar+Ant transposase (A) (Vibrio harveyi); assay: activity assay; conditions: bead-bound complex fragments DNA, Mn2+, 45 C, protein in a lysate after overexpression
# T9 sequence: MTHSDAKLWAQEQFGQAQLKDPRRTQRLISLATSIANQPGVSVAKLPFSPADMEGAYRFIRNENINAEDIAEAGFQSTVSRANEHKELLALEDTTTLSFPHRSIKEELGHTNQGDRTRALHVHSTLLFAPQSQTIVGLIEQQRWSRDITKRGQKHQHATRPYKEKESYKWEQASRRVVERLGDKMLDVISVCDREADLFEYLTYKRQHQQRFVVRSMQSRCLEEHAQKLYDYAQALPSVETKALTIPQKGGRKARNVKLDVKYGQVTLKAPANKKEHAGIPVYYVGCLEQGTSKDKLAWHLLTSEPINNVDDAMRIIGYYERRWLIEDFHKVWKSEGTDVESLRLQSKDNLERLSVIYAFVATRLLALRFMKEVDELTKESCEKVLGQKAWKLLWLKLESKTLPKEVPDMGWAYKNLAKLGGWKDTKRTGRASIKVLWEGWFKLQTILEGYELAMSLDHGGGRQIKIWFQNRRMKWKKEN
# [10] = tested on: T6, Vibhar transposase (V6) (Vibrio harveyi); assay: pull-down; conditions: complex formed in lysate with both adapters, streptavidin beads; fragments lambda DNA, Mn2+, 45 C; protein in a lysate after overexpression; label: biotin (3bio)
sequence,measurement,setting,value
GGAGCTGTGCGTAGATGTGATCAAGAGACAG / CTGTCTCTTGATCACATCT [adapter 8i1/8i0],activity on this sequence,[1],active
same,activity on this sequence,[2],active
same,activity on this sequence,[3],active
same,activity on this sequence,[4],active
same,activity on this sequence,[5],active
same,activity on this sequence,[6],active
same,activity on this sequence,[7],active
same,activity on this sequence,[8],active
same,activity on this sequence,[9],active
TTTTTTTTTTTTGCTGACGTCGAGACTTGTGATCAAGAGACAG / CTGTCTCTTGATCACAAGT [adapter 3bio/3i0],binding result,[10],binds
same,activity on this sequence,[1]; label: biotin (3bio),active
same,activity on this sequence,[2]; label: biotin (3bio),active
same,activity on this sequence,[3]; label: biotin (3bio),active
same,activity on this sequence,[4]; label: biotin (3bio),active
same,activity on this sequence,[5]; label: biotin (3bio),active
same,activity on this sequence,[7]; label: biotin (3bio),active
same,activity on this sequence,[8]; label: biotin (3bio),active
same,activity on this sequence,[9]; label: biotin (3bio),active

# For part of these data: Results from cells or extracts need not show a direct contact. Protein sequences can lack the tags named with them.
